From the supplement of paper PMC7661543
± gives the standard deviation of the averaged measurements. Differences between knockout arms are mostly noise.

Tested on: MDA-MB-231
Assay: relative cell number vs DMSO control (72 h) (% of DMSO); higher = less growth inhibition (more cells)
Experimental: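 QMAP-Seq: a pool of 5 breast cancer cell lines (ZR-75-1, SKBR3, HCC-38, MDA-MB-231, BT-20), each carrying 12 doxycycline-inducible Cas9 sgRNA perturbations (11 knockouts plus non-targeting sgNT), was treated with compounds for 72 h at four 10-fold doses (10 nM-10 uM or 1 nM-1 uM range). Barcodes were amplified and sequenced, and cell number was interpolated from 293T spike-in standard curves. The result is expressed as % of the median of DMSO wells. Two biological replicates.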

CNC(=O)c1cc(Oc2ccc(NC(=O)Nc3ccc(Cl)c(C(F)(F)F)c3)c(F)c2)ccn1 [Regorafenib]
Settings | relative cell number
sgRNA knockout: sgATF3, 10 nM | 115 ± 7.3
sgRNA knockout: sgATF3, 100 nM | 89.5 ± 2.4
sgRNA knockout: sgATF3, 1000 nM | 102 ± 3.5
sgRNA knockout: sgATF3, 10000 nM | 34.3 ± 1.4
sgRNA knockout: sgATF4, 10 nM | 136 ± 26
sgRNA knockout: sgATF4, 100 nM | 117 ± 21
sgRNA knockout: sgATF4, 1000 nM | 101 ± 31
sgRNA knockout: sgATF4, 10000 nM | 48.6 ± 21
sgRNA knockout: sgATF6, 10 nM | 113 ± 25
sgRNA knockout: sgATF6, 100 nM | 87.5 ± 19
sgRNA knockout: sgATF6, 1000 nM | 87.7 ± 4.3
sgRNA knockout: sgATF6, 10000 nM | 30.4 ± 9.8
sgRNA knockout: sgATG7, 10 nM | 102 ± 7.7
sgRNA knockout: sgATG7, 100 nM | 94.7 ± 3.1
sgRNA knockout: sgATG7, 1000 nM | 90.8 ± 1.4
sgRNA knockout: sgATG7, 10000 nM | 35 ± 5.9
sgRNA knockout: sgERN1, 10 nM | 99.7 ± 11
sgRNA knockout: sgERN1, 100 nM | 119 ± 0.17
sgRNA knockout: sgERN1, 1000 nM | 71.3 ± 3.4
sgRNA knockout: sgERN1, 10000 nM | 33.4 ± 6.7
sgRNA knockout: sgHSF1, 10 nM | 127 ± 16
sgRNA knockout: sgHSF1, 100 nM | 84.4 ± 7.2
sgRNA knockout: sgHSF1, 1000 nM | 73.1 ± 2.9
sgRNA knockout: sgHSF1, 10000 nM | 35 ± 4.4
sgRNA knockout: sgHSF2, 10 nM | 81.6 ± 6.6
sgRNA knockout: sgHSF2, 100 nM | 78.9 ± 6.8
sgRNA knockout: sgHSF2, 1000 nM | 77.4 ± 1.7
sgRNA knockout: sgHSF2, 10000 nM | 43.7 ± 6.3
sgRNA knockout: sgKEAP1, 10 nM | 91.7 ± 10
sgRNA knockout: sgKEAP1, 100 nM | 81.9 ± 1
sgRNA knockout: sgKEAP1, 1000 nM | 72.9 ± 5.8
sgRNA knockout: sgKEAP1, 10000 nM | 30.8 ± 12
sgRNA knockout: sgNFE2L2, 10 nM | 98 ± 11
sgRNA knockout: sgNFE2L2, 100 nM | 125 ± 13
sgRNA knockout: sgNFE2L2, 1000 nM | 99.6 ± 9.7
sgRNA knockout: sgNFE2L2, 10000 nM | 39.2 ± 12
sgRNA knockout: sgSLC35F2, 10 nM | 120 ± 14
sgRNA knockout: sgSLC35F2, 100 nM | 103 ± 4.1
sgRNA knockout: sgSLC35F2, 1000 nM | 76.6 ± 7.6
sgRNA knockout: sgSLC35F2, 10000 nM | 30.5 ± 8.2
sgRNA knockout: sgXBP1, 10 nM | 111 ± 10
sgRNA knockout: sgXBP1, 100 nM | 82.4 ± 1.9
sgRNA knockout: sgXBP1, 1000 nM | 89.7 ± 6.5
sgRNA knockout: sgXBP1, 10000 nM | 37.8 ± 16

CC(C)(C)c1cnc(CSc2cnc(NC(=O)C3CCNCC3)s2)o1 [SNS032]
Settings | relative cell number
sgRNA knockout: sgATF3, 10 nM | 96.3 ± 34
sgRNA knockout: sgATF3, 100 nM | 79.1 ± 1.7
sgRNA knockout: sgATF3, 1000 nM | 9.69 ± 0.75
sgRNA knockout: sgATF3, 10000 nM | 20.9 ± 6.6
sgRNA knockout: sgATF4, 10 nM | 84.2 ± 6.1
sgRNA knockout: sgATF4, 100 nM | 72.9 ± 55
sgRNA knockout: sgATF4, 1000 nM | 15.8 ± 2.3
sgRNA knockout: sgATF4, 10000 nM | 20.6 ± 5.4
sgRNA knockout: sgATF6, 10 nM | 94.99 ± 0.12
sgRNA knockout: sgATF6, 100 nM | 62 ± 31
sgRNA knockout: sgATF6, 1000 nM | 18.5 ± 6.2
sgRNA knockout: sgATF6, 10000 nM | 21.3 ± 2.6
sgRNA knockout: sgATG7, 10 nM | 85.4 ± 5
sgRNA knockout: sgATG7, 100 nM | 63.2 ± 17
sgRNA knockout: sgATG7, 1000 nM | 12.1 ± 2.2
sgRNA knockout: sgATG7, 10000 nM | 14 ± 1
sgRNA knockout: sgERN1, 10 nM | 112 ± 34
sgRNA knockout: sgERN1, 100 nM | 56.6 ± 17
sgRNA knockout: sgERN1, 1000 nM | 14.2 ± 2
sgRNA knockout: sgERN1, 10000 nM | 17.1 ± 13
sgRNA knockout: sgHSF1, 10 nM | 92.2 ± 15
sgRNA knockout: sgHSF1, 100 nM | 78.6 ± 20
sgRNA knockout: sgHSF1, 1000 nM | 13.7 ± 1.7
sgRNA knockout: sgHSF1, 10000 nM | 18.3 ± 5.4
sgRNA knockout: sgHSF2, 10 nM | 82.1 ± 20
sgRNA knockout: sgHSF2, 100 nM | 68.7 ± 16
sgRNA knockout: sgHSF2, 1000 nM | 14.4 ± 0.32
sgRNA knockout: sgHSF2, 10000 nM | 19.1 ± 0.57
sgRNA knockout: sgKEAP1, 10 nM | 112 ± 2.4
sgRNA knockout: sgKEAP1, 100 nM | 64.5 ± 15
sgRNA knockout: sgKEAP1, 1000 nM | 16.2 ± 6.8
sgRNA knockout: sgKEAP1, 10000 nM | 15.6 ± 2.5
sgRNA knockout: sgNFE2L2, 10 nM | 111 ± 16
sgRNA knockout: sgNFE2L2, 100 nM | 64.2 ± 8.1
sgRNA knockout: sgNFE2L2, 1000 nM | 10.8 ± 5.5
sgRNA knockout: sgNFE2L2, 10000 nM | 16.2 ± 2.9
sgRNA knockout: sgSLC35F2, 10 nM | 105 ± 10
sgRNA knockout: sgSLC35F2, 100 nM | 68.8 ± 13
sgRNA knockout: sgSLC35F2, 1000 nM | 11.3 ± 3.7
sgRNA knockout: sgSLC35F2, 10000 nM | 13.5 ± 9
sgRNA knockout: sgXBP1, 10 nM | 100 ± 19
sgRNA knockout: sgXBP1, 100 nM | 61.9 ± 1.1
sgRNA knockout: sgXBP1, 1000 nM | 13.7 ± 1.3
sgRNA knockout: sgXBP1, 10000 nM | 15.5 ± 1.1
